Data: article PMC7331280
No constants are given. Whether binding was seen depends on the method and setting. In cells and extracts the contact can be indirect. A result given as binding can be weak or reduced; the word gives no strength.

How the values were obtained:
[1] = target: Rab4 (mouse brain) (mouse (endogenous in mouse brain)); assay: co-IP; Rab4 precipitated with a rabbit monoclonal antibody to Rab4 (1 h, 25 °C) and Protein A/G magnetic beads from 1000 μg of the vesicle fraction (VF) of mouse brain; no detergents, to preserve vesicular membranes (Rab4-membrane IP); eluted at pH 2.8; western blot; no-antibody control
[2] = target: Rab4 (human iNeurons) (human (endogenous in iNeurons)); assay: co-IP; Rab4 precipitated with a rabbit monoclonal antibody to Rab4 and Protein A/G magnetic beads from the vesicle fraction (VF) of human iNeurons, WT (Q17) and HD (Q109); no detergents, to preserve vesicular membranes; western blot, band intensities of the HD IP normalised to the WT IP; no-antibody control

binding [1]	binding [2]	Binder
binds		Rab11-FIP5 (the mammalian homolog of rip11), mouse brain (protein, UniProt Q8R361 1-645) MALVRDPEPAAGSSRWLPTHVQVTVLRASGLRGKSSGAGSTSDAYTVIQVGREKYSTSVVEKTQGCPEWCEECSFELPPGALDGLLRAQEADAGPAPWASGPNAACELVLTTMHRSLIGVDKFLGRATVALDEVFRAGRAQHTQWYRLHSKPGKKEKERGEIQVTIQFTRNNLSASMFDLSMKDKPRSPFSKLKDRVKGKKKYDLESASAILPSSALEDPELGSLGKMGKAKGFFLRNKLRKSSLTQSNTSLGSDSTLSSTSGSLVYQGPGAELLTRSPSHSSWLSTEGGRDSIQSPKLLTHKRTYSDEASQLRAAPPRALLELQGHLDGASRSSLCVNGSHVYNEEPQPPLRHRSSISGPFPPSSSLHSVPPRSSEEGSRSSDDSWGRGSHGTSSSEAVPGQEELSKQAKGASCSGEEEGARLPEGKPVQVATPMVASSEAVAAEKDRKPRMGLFHHHHHQGLSRSEQGRRGSVGEKGSPSLGASPHHSSTGEEKAKSSWFGLRESKEPTQKPSPHPVKPLTAAPVEASPDRKQPRTSLSTALSSGLERLKTVTSGGIQSVLPASQLGSSVDTKRPKDSAVLDQSAKYYHLTHDELIGLLLQRERELSQRDEHVQELESYIDRLLVRIMETSPTLLQISPGPPK
binds		HIP1 (huntingtin-interacting protein 1), mouse brain (protein, UniProt Q8VD75 1-1029) MDRMASSMKQVSNPLPKVLSRRGVGAGMEAAERESFERTQTVSVNKAINTQEVAVKEKHARTCILGTHHEKGAQTFWSVVNRLPLSSNAMLCWKFCHVFHKLLRDGHPNVLKDSLRYKNELSDMSRMWGHLSEGYGQLCSIYLKLLRTRMEYHTKNPRFPGNLQMSDRQLDEAGESDVNNFFQLTVEMFDYLECELNLFQTVFNSLDMSRSVSVTTAGQCRLAPLIQVILDCSHLYDYTVKLLFKLHSCLPADTLQGHRDRFMEQFTKLKDLFQRSSNLQYFKRLIQIPQLPENPPNFLRASALSEHISPVVVIPAEVSSPDSEPVLEKDDLMDMDASQQTLFDNKFDDVFGSSLSSDPFNFNNQNGVNKDEKDHLIERLYREISGLTGQLDNMKIESQRAMLQLKGRVSELEAELAEQQHLGRQAMDDCEFLRTELDELKRQREDTEKAQRSLTEIERKAQANEQRYSKLKEKYSELVQNHADLLRKNAEVTKQVSVARQAQVDLEREKKELADSFARTQEQQDVLENLKHELATSRQELQVLHSNLETSAQSEAKWLTQIAELEKEQGSLATVAAQREEELSALRDQLESTQIKLAGAQESMCQQVKDQRKTLLAGIRKAAEREIQEALSQLEEPTLISCAGSTDHLLSKVSSVSSCLEQLEKNGSQYLACPEDISELLHSITLLAHLTGDTIIQGSATSLRAPPEPADSLTEACRQYGRETLAYLSSLEEEGTMENADVTALRNCLSRVKTLGEELLPRGLDIKQEELGDLVDKEMAATSAAIEAATTRIEEILSKSRAGDTGVKLEVNERILGSCTSLMQAIKVLVVASKDLQKEIVESGRGTASPKEFYAKNSRWTEGLISASKAVGWGATIMVDAADLVVQGKGKFEELMVCSREIAASTAQLVAASKVKANKGSLNLTQLQQASRGVNQATAAVVASTISGKSQIEETDSMDFSSMTLTQIKRQEMDSQVRVLELENDLQKERQKLGELRKKHYELAGVAEGWEEGTEASPSTVQEAIPDKE
no binding		syntaxin-17 (SYX17), mouse brain (protein, UniProt Q9D0I4 1-301) MSEDEEKVKLRRLEPAIQKFTKIVIPTDLERLRKHQINIEKYQRCRIWDKLHEEHINAGRTVQQLRSNIREMEKLCLKVHKDDLVLLKRMIDPVKEAAATATAEFLQLHLESVEELKKQVNDEELLQPSLTRSTTVDGVLHTGEAEAASQSLTQIYALPEIPQDQNAAESWETLEADLIELSHLVTDMSLLVSSQQEKIDSIADHVNSAAVNVEEGTKNLQKAAKYKLAALPVAGALIGGVVGGPIGLLAGFKVAGIAAALGGGVLGFTGGKLIQRRKQKMMEKLTSSCPDLPSQSDKKRS
	binds	HIP1, human iNeurons (protein, UniProt O00291 1-1037) MDRMASSMKQVPNPLPKVLSRRGVGAGLEAAERESFERTQTVSINKAINTQEVAVKEKHARTCILGTHHEKGAQTFWSVVNRLPLSSNAVLCWKFCHVFHKLLRDGHPNVLKDSLRYRNELSDMSRMWGHLSEGYGQLCSIYLKLLRTKMEYHTKNPRFPGNLQMSDRQLDEAGESDVNNFFQLTVEMFDYLECELNLFQTVFNSLDMSRSVSVTAAGQCRLAPLIQVILDCSHLYDYTVKLLFKLHSCLPADTLQGHRDRFMEQFTKLKDLFYRSSNLQYFKRLIQIPQLPENPPNFLRASALSEHISPVVVIPAEASSPDSEPVLEKDDLMDMDASQQNLFDNKFDDIFGSSFSSDPFNFNSQNGVNKDEKDHLIERLYREISGLKAQLENMKTESQRVVLQLKGHVSELEADLAEQQHLRQQAADDCEFLRAELDELRRQREDTEKAQRSLSEIERKAQANEQRYSKLKEKYSELVQNHADLLRKNAEVTKQVSMARQAQVDLEREKKELEDSLERISDQGQRKTQEQLEVLESLKQELATSQRELQVLQGSLETSAQSEANWAAEFAELEKERDSLVSGAAHREEELSALRKELQDTQLKLASTEESMCQLAKDQRKMLLVGSRKAAEQVIQDALNQLEEPPLISCAGSADHLLSTVTSISSCIEQLEKSWSQYLACPEDISGLLHSITLLAHLTSDAIAHGATTCLRAPPEPADSLTEACKQYGRETLAYLASLEEEGSLENADSTAMRNCLSKIKAIGEELLPRGLDIKQEELGDLVDKEMAATSAAIETATARIEEMLSKSRAGDTGVKLEVNERILGCCTSLMQAIQVLIVASKDLQREIVESGRGTASPKEFYAKNSRWTEGLISASKAVGWGATVMVDAADLVVQGRGKFEELMVCSHEIAASTAQLVAASKVKADKDSPNLAQLQQASRGVNQATAGVVASTISGKSQIEETDNMDFSSMTLTQIKRQEMDSQVRVLELENELQKERQKLGELRKKHYELAGVAEGWEEGTEASPPTLQEVVTEKE
no binding		HAP1 (huntingtin-associated protein 1), mouse brain (protein, UniProt O35668 1-628) MRPKEQVQSGAGDGTGSGDPAAGTPTTQPAVGPAPEPSAEPKPAPAQGTGSGQKSGSRTKTGSFCRSMIIGDSDAPWTRYVFQGPYGPRATGLGTGKAEGIWKTPAAYIGRRPGVSGPERAAFIRELQEALCPNPPPTKKITEDDVKVMLYLLEEKERDLNTAARIGQSLVKQNSVLMEENNKLETMLGSAREEILHLRKQVNLRDDLLQLYSDSDDDDDEEDEEDEEEGEEEEREGQRDQDQQHDHPYGAPKPHPKAETAHRCPQLETLQQKLRLLEEENDHLREEASHLDNLEDEEQMLILECVEQFSEASQQMAELSEVLVLRLEGYERQQKEITQLQAEITKLQQRCQSYGAQTEKLQQMLASEKGIHSESLRAGSYMQDYGSRPRDRQEDGKSHRQRSSMPAGSVTHYGYSVPLDALPSFPETLAEELRTSLRKFITDPAYFMERRDTHCREGRKKEQRAMPPPPAQDLKPPEDFEAPEELVPEEELGAIEEVGTAEDGQAEENEQASEETEAWEEVEPEVDETTRMNVVVSALEASGLGPSHLDMKYVLQQLSNWQDAHSKRQQKQKVVPKDSPTPQQQTNMGGGILEQQPRVPTQDSQRLEEDRATHSPSAREEEGPSGAT
